From patent US11965026
These are yes or no findings as the source states them, for the method shown. Some results given as binding are weak or reduced against the parent protein; the word gives no strength.

Protein sequences, listed by entry. Tags and fused reporters are not part of them. Lines headed by an entry give the natural chain unless they say otherwise; changes in a name come on top.
UniProt Q9NZQ7: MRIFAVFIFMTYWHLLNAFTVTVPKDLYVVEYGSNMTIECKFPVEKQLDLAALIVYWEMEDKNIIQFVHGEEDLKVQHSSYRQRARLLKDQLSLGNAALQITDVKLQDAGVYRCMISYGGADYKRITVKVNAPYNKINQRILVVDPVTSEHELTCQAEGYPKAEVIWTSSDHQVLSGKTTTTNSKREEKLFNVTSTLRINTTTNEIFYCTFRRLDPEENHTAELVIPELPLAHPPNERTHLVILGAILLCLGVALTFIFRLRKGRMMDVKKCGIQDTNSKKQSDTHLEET

Key:
[1] = target: cynomolgus PD-L1 expressed on CHO-S cells (cynomolgus monkey); assay: flow cytometry on CHO-S cells transfected with cynomolgus PD-L1
Human PD-L1 His (human) = Human PD-L1 His (human) (UniProt Q9NZQ7); assay: SPR 25C and 37C

Row | binding [1] | binding (Human PD-L1 His (human)) | Binder
1 | binds | binds | 413G05 (antibody, human IgG1, kappa, V domains shown) VH: QVQLVESGGGLVKPGGSLRLSCAASGFTFSDYYMSWIRQVPGKGLEWVSYISTSGSTIYYADSVKGRFTISRDNAKNSLYLQMNSLRAEDAAVYHCARGITGTNFYHYGLGVWGQGTTVTVSS VL: DIQMTQSPSSVSASVGDRVTITCRASQGINSWLAWYQQKPGKAPKLLIYAASTLQSGVPSRFSGSGSGADFTLTISSLQPEDFATYYCQQVNSFPLTFGGGTKVEIKR
2 | binds | binds | 416E01 (antibody, V domains shown) VH: EVQLAESGGGLVQPGGSLRLSCAASGFTFSNYAMSWVRQTPGKGLEWVSAISFSGGTTYYADSVKGRFTISRDNSKNTLYLHMNSLRADDTAVYYCAKDEAPAGATFFDSWGQGTLVTVSS VL: DIQMTQSPSSVSASVGDRVTITCRASQGIRRWLAWYQQKPGKAPKLLISGASSLQSGVPSRFSGSGSGTDFTLIITSLQPEDFATYYCQQANSFPITFGQGTRLEIK
